Test results as given in paper PMC5599688.
These are yes or no findings as the source states them, for the method shown. In cells and extracts the contact can be indirect. Binding calls can cover weak binding; strength is not graded here.

By UniProt entry, the sequences of proteins in these tests, tags left out. Where a name states a change or a piece, a line headed by the entry shows the natural chain unless it says otherwise.
UniProt P35564: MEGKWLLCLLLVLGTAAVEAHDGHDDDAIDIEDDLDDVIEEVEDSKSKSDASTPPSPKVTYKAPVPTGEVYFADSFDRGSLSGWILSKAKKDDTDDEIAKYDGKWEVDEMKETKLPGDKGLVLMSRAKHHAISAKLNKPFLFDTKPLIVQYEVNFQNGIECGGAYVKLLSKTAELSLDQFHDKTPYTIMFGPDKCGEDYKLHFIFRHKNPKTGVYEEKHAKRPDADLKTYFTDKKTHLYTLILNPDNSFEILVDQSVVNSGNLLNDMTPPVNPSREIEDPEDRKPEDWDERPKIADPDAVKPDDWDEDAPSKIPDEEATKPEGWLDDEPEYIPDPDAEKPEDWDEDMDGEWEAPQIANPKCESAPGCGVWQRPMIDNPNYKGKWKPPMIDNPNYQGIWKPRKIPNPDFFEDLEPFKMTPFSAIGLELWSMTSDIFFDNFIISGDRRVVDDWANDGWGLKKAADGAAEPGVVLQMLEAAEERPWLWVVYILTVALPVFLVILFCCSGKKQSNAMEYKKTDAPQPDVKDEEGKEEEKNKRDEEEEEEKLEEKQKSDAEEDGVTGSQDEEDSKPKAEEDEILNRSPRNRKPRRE
UniProt O95180: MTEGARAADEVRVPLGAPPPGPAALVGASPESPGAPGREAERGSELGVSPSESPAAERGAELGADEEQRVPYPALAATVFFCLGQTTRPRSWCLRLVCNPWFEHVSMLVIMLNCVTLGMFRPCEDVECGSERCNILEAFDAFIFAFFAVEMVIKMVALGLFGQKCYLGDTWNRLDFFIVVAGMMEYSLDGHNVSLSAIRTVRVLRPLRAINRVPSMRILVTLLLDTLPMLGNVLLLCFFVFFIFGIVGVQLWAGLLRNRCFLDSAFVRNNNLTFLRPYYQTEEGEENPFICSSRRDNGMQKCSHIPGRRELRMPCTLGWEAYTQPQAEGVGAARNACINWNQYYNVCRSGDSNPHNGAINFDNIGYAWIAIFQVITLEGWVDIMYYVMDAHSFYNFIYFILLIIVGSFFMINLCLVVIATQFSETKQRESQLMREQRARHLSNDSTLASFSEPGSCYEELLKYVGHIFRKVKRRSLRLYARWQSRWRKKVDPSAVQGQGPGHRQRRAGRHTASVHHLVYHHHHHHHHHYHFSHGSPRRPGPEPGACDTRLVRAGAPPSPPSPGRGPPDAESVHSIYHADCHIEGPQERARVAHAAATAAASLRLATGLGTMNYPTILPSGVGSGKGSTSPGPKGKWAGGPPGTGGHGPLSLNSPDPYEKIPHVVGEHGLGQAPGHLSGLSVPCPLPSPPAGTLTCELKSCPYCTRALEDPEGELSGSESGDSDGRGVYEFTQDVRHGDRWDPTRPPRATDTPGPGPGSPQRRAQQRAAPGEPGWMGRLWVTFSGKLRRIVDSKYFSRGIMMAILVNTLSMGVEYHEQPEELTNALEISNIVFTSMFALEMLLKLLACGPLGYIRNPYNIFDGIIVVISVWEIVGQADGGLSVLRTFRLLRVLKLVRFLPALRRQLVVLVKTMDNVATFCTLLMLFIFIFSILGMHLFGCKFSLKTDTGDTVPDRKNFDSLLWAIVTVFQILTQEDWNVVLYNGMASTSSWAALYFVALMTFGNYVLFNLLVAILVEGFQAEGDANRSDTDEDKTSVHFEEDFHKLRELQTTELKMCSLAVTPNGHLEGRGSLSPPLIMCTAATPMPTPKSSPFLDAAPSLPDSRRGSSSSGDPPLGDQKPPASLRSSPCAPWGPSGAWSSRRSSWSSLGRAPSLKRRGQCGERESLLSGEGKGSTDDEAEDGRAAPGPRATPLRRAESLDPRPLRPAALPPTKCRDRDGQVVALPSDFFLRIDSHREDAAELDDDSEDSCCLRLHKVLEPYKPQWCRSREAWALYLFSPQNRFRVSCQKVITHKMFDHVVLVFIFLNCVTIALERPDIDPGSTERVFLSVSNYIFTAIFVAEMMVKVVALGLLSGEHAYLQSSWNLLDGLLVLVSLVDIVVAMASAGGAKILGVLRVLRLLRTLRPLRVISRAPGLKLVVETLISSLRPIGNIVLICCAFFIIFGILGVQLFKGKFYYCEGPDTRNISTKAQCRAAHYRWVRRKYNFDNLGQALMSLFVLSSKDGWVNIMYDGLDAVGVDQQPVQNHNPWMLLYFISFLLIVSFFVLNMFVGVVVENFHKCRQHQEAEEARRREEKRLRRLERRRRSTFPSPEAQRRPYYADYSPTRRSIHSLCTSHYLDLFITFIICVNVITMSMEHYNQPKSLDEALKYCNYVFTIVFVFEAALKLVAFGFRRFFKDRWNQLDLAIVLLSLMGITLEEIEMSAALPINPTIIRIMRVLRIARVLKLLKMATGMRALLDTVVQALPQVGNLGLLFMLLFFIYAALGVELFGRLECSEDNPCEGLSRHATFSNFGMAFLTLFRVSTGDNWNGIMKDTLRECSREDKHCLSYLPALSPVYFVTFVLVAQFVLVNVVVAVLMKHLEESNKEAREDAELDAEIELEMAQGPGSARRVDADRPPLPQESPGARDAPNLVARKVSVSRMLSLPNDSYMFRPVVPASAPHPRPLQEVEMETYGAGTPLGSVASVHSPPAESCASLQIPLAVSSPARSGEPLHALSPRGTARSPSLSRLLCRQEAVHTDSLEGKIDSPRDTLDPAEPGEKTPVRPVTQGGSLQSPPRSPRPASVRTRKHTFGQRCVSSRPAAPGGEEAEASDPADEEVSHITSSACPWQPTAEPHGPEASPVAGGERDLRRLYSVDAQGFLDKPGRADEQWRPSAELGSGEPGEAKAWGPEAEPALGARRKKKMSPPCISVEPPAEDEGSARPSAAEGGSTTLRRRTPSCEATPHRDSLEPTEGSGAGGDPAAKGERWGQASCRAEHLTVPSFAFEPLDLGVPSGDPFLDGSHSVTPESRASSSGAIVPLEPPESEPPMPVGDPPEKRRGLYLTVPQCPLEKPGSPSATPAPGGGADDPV

Key:
[1] = target: mCherry-tagged calnexin lacking the cytosolic domain (CNX^AC) (mouse) (UniProt P35564); assay: co-IP; tsA-201 cells 72 h after transfection, NP40 lysis buffer; precipitated with anti-mCherry (CNX-mCherry constructs), blotted with anti-HA
[2] = target: mCherry-tagged calnexin lacking the luminal domain (CNX^BD) (mouse) (UniProt P35564); assay: as above
[3] = target: HA-tagged human Cav3.2 channel (human) (UniProt O95180); assay: co-IP; tsA-201 cells 72 h after transfection, NP40 lysis buffer (50 mM Tris, 150 mM NaCl, 1% NP40, pH 8.0); precipitated with anti-HA (hCav3.2-HA), blotted with anti-CNX or anti-mCherry

| binding [1] | binding [2] | binding [3] | Substance |
| --- | --- | --- | --- |
| binds | binds | – | HA-tagged human Cav3.2 channel (from UniProt O95180 1-2353) |
| – | – | binds | mCherry-tagged calnexin lacking the cytosolic domain (CNX^AC) (from UniProt P35564) (domain or fragment) |
| – | – | binds | mCherry-tagged calnexin lacking the luminal domain (CNX^BD) (from UniProt P35564) (domain or fragment) |
